From patent US20100196951A1
No constants are given. Whether binding was seen depends on the method and setting. In cells and extracts the contact can be indirect. Some entries that bind do so weakly or less than the wild type.

By UniProt entry, the sequences of proteins in these tests, tags left out.
UniProt P0AE70: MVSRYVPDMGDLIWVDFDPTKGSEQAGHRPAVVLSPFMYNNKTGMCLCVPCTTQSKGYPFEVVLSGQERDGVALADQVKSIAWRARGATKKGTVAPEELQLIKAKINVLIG

Target: His-tagged MazF protein (Escherichia coli) (UniProt P0AE70)
Test: co-elution with His-tagged MazF in His-tag chromatography, SDS-PAGE with Coomassie staining

## MazE antitoxin with the Thrombin-recognition sequence LVPRGS in place of VDGK at positions 38 to 41 (from UniProt P0AE72 1-37; P0AE72 42-82)
  binding: binds
